# Assay results: the supplement of paper PMC8728848
# This is one part of the list.
# Assays:
# Assay in all cases: glycan array binding signal (z-score within array); higher = stronger binding
# Settings in all cases: glycan notation: IUPAC condensed, linker removed
# [1] = target: Fuc(a1-3)GlcNAc
# In short: (§1)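 Glycan array data were curated from 3228 arrays in the Consortium for Functional Glycomics database and kept only where the protein sequence was available. Glycan names were converted to IUPAC-condensed notation, and columns mapping to the same glycan were averaged. The binding signal is a within-array Z-score, averaged across arrays of the same protein sequence at different concentrations or buffers and across linkers. Negative Z-scores can be read as non-binding.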
# [2] = target: Fuc(a1-3)[Gal(b1-4)]Glc6S
# In short: as §1
# [3] = target: Fuc(a1-3)[Gal(b1-4)]GlcNAc
# In short: as §1
# [4] = target: Fuc(a1-3)[Gal(b1-4)]GlcNAc(b1-2)Man
# In short: as §1
# [5] = target: Fuc(a1-3)[Gal(b1-4)]GlcNAc(b1-2)Man(a1-3)[Fuc(a1-3)[Gal(b1-4)]GlcNAc(b1-2)Man(a1-6)]Man(b1-4)GlcNAc(b1-4)GlcNAc
# In short: as §1
# [6] = target: Fuc(a1-3)[Gal(b1-4)]GlcNAc(b1-2)Man(a1-3)[Fuc(a1-3)[Gal(b1-4)]GlcNAc(b1-2)Man(a1-6)]Man(b1-4)GlcNAc(b1-4)[Fuc(a1-6)]GlcNAc
# In short: as §1
# [7] = target: Fuc(a1-3)[Gal(b1-4)]GlcNAc(b1-3)Gal(b1-3)[Fuc(a1-4)]GlcNAc
# In short: as §1
# [8] = target: Fuc(a1-3)[Gal(b1-4)]GlcNAc(b1-3)Gal(b1-4)[Fuc(a1-3)]GlcNAc
# In short: as §1
# [9] = target: Fuc(a1-3)[Gal(b1-4)]GlcNAc(b1-3)Gal(b1-4)[Fuc(a1-3)]GlcNAc(b1-3)Gal(b1-4)[Fuc(a1-3)]GlcNAc
# In short: as §1
# [10] = target: Fuc(a1-3)[Gal(b1-4)]GlcNAc(b1-3)GalNAc
# In short: as §1
# [11] = target: Fuc(a1-3)[Gal(b1-4)]GlcNAc(b1-6)GalNAc
# In short: as §1
# [12] = target: Fuc(a1-3)[Gal(b1-4)]GlcNAc(b1-6)[Gal(b1-3)GlcNAc(b1-3)]Gal(b1-4)Glc
# In short: as §1
# [13] = target: Fuc(a1-3)[Gal(b1-4)]GlcNAc6S
# In short: as §1
# [14] = target: Fuc(a1-3)[Gal3S(b1-4)]Glc
# In short: as §1
# [15] = target: Fuc(a1-3)[Gal3S(b1-4)]GlcNAc
# In short: as §1
# [16] = target: Fuc(a1-3)[Gal3S(b1-4)]GlcNAc6S
# In short: as §1
# [17] = target: Fuc(a1-3)[GalNAc(b1-4)]GlcNAc
# In short: as §1
# [18] = target: Fuc(a1-3)[GalNAc(b1-4)]GlcNAc6S
# In short: as §1
# [19] = target: Fuc(a1-4)GlcNAc
# In short: as §1
# [20] = target: Fuc(b1-3)GlcNAc
# In short: as §1
# [21] = target: Gal(a1-2)Gal
# In short: as §1
# [22] = target: Gal(a1-3)Gal
# In short: as §1
# [23] = target: Gal(a1-3)Gal(b1-3)GlcNAc
# In short: as §1
# [24] = target: Gal(a1-3)Gal(b1-3)GlcNAc(b1-2)Man
# In short: as §1
# [25] = target: Gal(a1-3)Gal(b1-3)GlcNAc(b1-2)Man(a1-3)[Gal(a1-3)Gal(b1-3)GlcNAc(b1-2)Man(a1-6)]Man(b1-4)GlcNAc(b1-4)GlcNAc
# In short: as §1
# [26] = target: Gal(a1-3)Gal(b1-3)GlcNAc(b1-3)GalNAc
# In short: as §1
# [27] = target: Gal(a1-3)Gal(b1-3)GlcNAc(b1-6)GalNAc
# In short: as §1
# [28] = target: Gal(a1-3)Gal(b1-3)[Fuc(a1-4)]GlcNAc(b1-2)Man(a1-3)[Gal(a1-3)Gal(b1-3)[Fuc(a1-4)]GlcNAc(b1-2)Man(a1-6)]Man(b1-4)GlcNAc(b1-4)GlcNAc
# In short: as §1
# [29] = target: Gal(a1-3)Gal(b1-4)Glc
# In short: as §1
# [30] = target: Gal(a1-3)Gal(b1-4)GlcNAc
# In short: as §1
# [31] = target: Gal(a1-3)Gal(b1-4)GlcNAc(b1-2)Man
# In short: as §1
# [32] = target: Gal(a1-3)Gal(b1-4)GlcNAc(b1-2)Man(a1-3)[Gal(a1-3)Gal(b1-4)GlcNAc(b1-2)Man(a1-6)]Man(b1-4)GlcNAc(b1-4)GlcNAc
# In short: as §1
# [33] = target: Gal(a1-3)Gal(b1-4)GlcNAc(b1-3)GalNAc
# In short: as §1
# [34] = target: Gal(a1-3)Gal(b1-4)GlcNAc(b1-6)GalNAc
# In short: as §1
# [35] = target: Gal(a1-3)Gal(b1-4)[Fuc(a1-3)]GlcNAc
# In short: as §1
# [36] = target: Gal(a1-3)Gal(b1-4)[Fuc(a1-3)]GlcNAc(b1-2)Man(a1-3)[Gal(a1-3)Gal(b1-4)[Fuc(a1-3)]GlcNAc(b1-2)Man(a1-6)]Man(b1-4)GlcNAc(b1-4)GlcNAc
# In short: as §1
# [37] = target: Gal(a1-3)GalNAc
# In short: as §1
# [38] = target: Gal(a1-3)[Gal(a1-4)]Gal(b1-4)GlcNAc
# In short: as §1
# [39] = target: Gal(a1-4)Gal(b1-3)GlcNAc(b1-2)Man(a1-3)[Gal(a1-4)Gal(b1-3)GlcNAc(b1-2)Man(a1-6)]Man(b1-4)GlcNAc(b1-4)GlcNAc
# In short: as §1
# [40] = target: Gal(a1-4)Gal(b1-4)Glc
# In short: as §1
# [41] = target: Gal(a1-4)Gal(b1-4)GlcNAc
# In short: as §1
# [42] = target: Gal(a1-4)Gal(b1-4)GlcNAc(b1-2)Man(a1-3)[Gal(a1-4)Gal(b1-4)GlcNAc(b1-2)Man(a1-6)]Man(b1-4)GlcNAc(b1-4)GlcNAc
# In short: as §1
# [43] = target: Gal(a1-4)Gal(b1-4)GlcNAc(b1-3)Gal(b1-4)Glc
# In short: as §1
# [44] = target: Gal(a1-4)GlcNAc
# In short: as §1
# [45] = target: Gal(a1-6)Glc
# In short: as §1
binder,measurement,setting,value
"YghJ (Escherichia coli), E3PJ90 (protein) MNKKFKYKKSLLAAILSATLLAGCDGGGSGSSSDTPPVDSGTGSLPEVKPDPTPNPEPTPEPTPDPEPTPEPIPDPEPTPEPEPEPVPTKTGYLTLGGSQRVTGATCNGESSDGFTFKPGEDVTCVAGNTTIATFNTQSEAARSLRAVEKVSFSLEDAQELAGSDDKKSNAVSLVTSSNSCPANTEQVCLTFSSVIESKRFDSLYKQIDLAPEEFKKLVNEEVENNAATDKAPSTHTSPVVPVTTPGTKPDLNASFVSANAEQFYQYQPTEIILSEGRLVDSQGYGVAGVNYYTNSGRGVTGENGEFSFSWGEAISFGIDTFELGSVRGNKSTIALTELGDEVRGANIDQLIHRYSTTGQNNTRVVPDDVRKVFAEYPNVINEIINLSLSNGATLGEGEQVVNLPNEFIEQFNTGQAKEIDTAICAKTDGCNEARWFSLTTRNVNDGQIQGVINKLWGVDTNYKSVSKFHVFHDSTNFYGSTGNARGQAVVNISNAAFPILMARNDKNYWLAFGEKRAWDKNELAYITEAPSIVRPENVTRETASFNLPFISLGQVGDGKLMVIGNPHYNSILRCPNGYSWNGGVNKDGQCTLNSDPDDMKNFMENVLRYLSNDRWLPDAKSSMTVGTNLETVYFKKHGQVLGNSAPFAFHKDFTGITVKPMTSYGNLNPDEVPLLILNGFEYVTQWGSDPYSIPLRADTSKPKLTQQDVTDLIAYMNKGGSVLIMENVMSNLKEESASGFVRLLDAAGLSMALNKSVVNNDPQGYPDRVRQRRSTPIWVYERYPAVDGKPPYTIDDTTKEVIWKYQQENKPDDKPKLEVASWQEEVEGKQVTQFAFIDEADHKTPESLAAAKQRILDAFPGLEVCKDSDYHYEVNCLEYRPGTDVPVTGGMYVPQYTQLDLSADTAKAMLQAADLGTNIQRLYQHELYFRTNGRQGERLNSVDLERLYQNMSVWLWNETKYRYEEGKEDELGFKTFTEFLNCYTNNAYVGTQCSAELKKSLIDNKMIYGEESSKAGMMNPSYPLNYMEKPLTRLMLGRSWWDLNIKVDVEKYPGVVNTNGETVTQNINLYSAPTKWFAGNMQSTGLWAPAQQEVSIESKSTVPVTVTVALADDLTGREKHEVSLNRPPRVTKTYDLKANDKVTFKVPYGGLIYIKGDSKEVQSADFTFTGVVKAPFYKDGKWQHDLNSPAPLGELESASFVYTTPKKNLNASNYTGGLEQFANDLDTFASSMNDFYGRDSEDGKHRMFTYKNLPGHKHRFANDVQISIGDAHSGYPVMNSSFSPNSTTLPTTPLNDWLIWHEVGHNAAETPLTVPGATEVANNVLALYMQDRYLGKMNRVADDITVAPEYLEESNGQAWARGGAGDRLLMYAQLKEWAEKNFDIKKWYPDGTPLPEFYSEREGMKGWNLFQLMHRKARGDEVSNDKFGGKNYCAESNGNAADTLMLCASWVAQTDLSEFFKKWNPGANAYQLPGASEMSFEGGVSQSAYNTLASLDLPKPEQGPETINQVTEHKMSAE",glycan array binding signal (z-score),[1],-0.259
same,glycan array binding signal (z-score),[2],-0.567
same,glycan array binding signal (z-score),[3],-0.2
same,glycan array binding signal (z-score),[4],-0.275
same,glycan array binding signal (z-score),[5],1.37
same,glycan array binding signal (z-score),[6],1.91
same,glycan array binding signal (z-score),[7],2.74
same,glycan array binding signal (z-score),[8],-0.973
same,glycan array binding signal (z-score),[9],-1.17
same,glycan array binding signal (z-score),[10],0.864
same,glycan array binding signal (z-score),[11],0.618
same,glycan array binding signal (z-score),[12],-0.268
same,glycan array binding signal (z-score),[13],-1.01
same,glycan array binding signal (z-score),[14],0.449
same,glycan array binding signal (z-score),[15],0.725
same,glycan array binding signal (z-score),[16],0.764
same,glycan array binding signal (z-score),[17],0.729
same,glycan array binding signal (z-score),[18],0.125
same,glycan array binding signal (z-score),[19],-1.15
same,glycan array binding signal (z-score),[20],-0.154
same,glycan array binding signal (z-score),[21],0.209
same,glycan array binding signal (z-score),[22],-0.167
same,glycan array binding signal (z-score),[23],-1.57
same,glycan array binding signal (z-score),[24],-1.15
same,glycan array binding signal (z-score),[25],1.47
same,glycan array binding signal (z-score),[26],0.957
same,glycan array binding signal (z-score),[27],0.282
same,glycan array binding signal (z-score),[28],-0.696
same,glycan array binding signal (z-score),[29],-0.571
same,glycan array binding signal (z-score),[30],-0.469
same,glycan array binding signal (z-score),[31],0.24
same,glycan array binding signal (z-score),[32],0.637
same,glycan array binding signal (z-score),[33],-0.448
same,glycan array binding signal (z-score),[34],-0.131
same,glycan array binding signal (z-score),[35],-2.21
same,glycan array binding signal (z-score),[36],0.736
same,glycan array binding signal (z-score),[37],-0.152
same,glycan array binding signal (z-score),[38],-0.439
same,glycan array binding signal (z-score),[39],1.11
same,glycan array binding signal (z-score),[40],-0.047
same,glycan array binding signal (z-score),[41],-0.664
same,glycan array binding signal (z-score),[42],0.36
same,glycan array binding signal (z-score),[43],0.123
same,glycan array binding signal (z-score),[44],-1.26
same,glycan array binding signal (z-score),[45],-0.543

# Reprinted from above for reference:
binder,measurement,setting,value
"YghJ (Escherichia coli), E3PJ90 (protein) MNKKFKYKKSLLAAILSATLLAGCDGGGSGSSSDTPPVDSGTGSLPEVKPDPTPNPEPTPEPTPDPEPTPEPIPDPEPTPEPEPEPVPTKTGYLTLGGSQRVTGATCNGESSDGFTFKPGEDVTCVAGNTTIATFNTQSEAARSLRAVEKVSFSLEDAQELAGSDDKKSNAVSLVTSSNSCPANTEQVCLTFSSVIESKRFDSLYKQIDLAPEEFKKLVNEEVENNAATDKAPSTHTSPVVPVTTPGTKPDLNASFVSANAEQFYQYQPTEIILSEGRLVDSQGYGVAGVNYYTNSGRGVTGENGEFSFSWGEAISFGIDTFELGSVRGNKSTIALTELGDEVRGANIDQLIHRYSTTGQNNTRVVPDDVRKVFAEYPNVINEIINLSLSNGATLGEGEQVVNLPNEFIEQFNTGQAKEIDTAICAKTDGCNEARWFSLTTRNVNDGQIQGVINKLWGVDTNYKSVSKFHVFHDSTNFYGSTGNARGQAVVNISNAAFPILMARNDKNYWLAFGEKRAWDKNELAYITEAPSIVRPENVTRETASFNLPFISLGQVGDGKLMVIGNPHYNSILRCPNGYSWNGGVNKDGQCTLNSDPDDMKNFMENVLRYLSNDRWLPDAKSSMTVGTNLETVYFKKHGQVLGNSAPFAFHKDFTGITVKPMTSYGNLNPDEVPLLILNGFEYVTQWGSDPYSIPLRADTSKPKLTQQDVTDLIAYMNKGGSVLIMENVMSNLKEESASGFVRLLDAAGLSMALNKSVVNNDPQGYPDRVRQRRSTPIWVYERYPAVDGKPPYTIDDTTKEVIWKYQQENKPDDKPKLEVASWQEEVEGKQVTQFAFIDEADHKTPESLAAAKQRILDAFPGLEVCKDSDYHYEVNCLEYRPGTDVPVTGGMYVPQYTQLDLSADTAKAMLQAADLGTNIQRLYQHELYFRTNGRQGERLNSVDLERLYQNMSVWLWNETKYRYEEGKEDELGFKTFTEFLNCYTNNAYVGTQCSAELKKSLIDNKMIYGEESSKAGMMNPSYPLNYMEKPLTRLMLGRSWWDLNIKVDVEKYPGVVNTNGETVTQNINLYSAPTKWFAGNMQSTGLWAPAQQEVSIESKSTVPVTVTVALADDLTGREKHEVSLNRPPRVTKTYDLKANDKVTFKVPYGGLIYIKGDSKEVQSADFTFTGVVKAPFYKDGKWQHDLNSPAPLGELESASFVYTTPKKNLNASNYTGGLEQFANDLDTFASSMNDFYGRDSEDGKHRMFTYKNLPGHKHRFANDVQISIGDAHSGYPVMNSSFSPNSTTLPTTPLNDWLIWHEVGHNAAETPLTVPGATEVANNVLALYMQDRYLGKMNRVADDITVAPEYLEESNGQAWARGGAGDRLLMYAQLKEWAEKNFDIKKWYPDGTPLPEFYSEREGMKGWNLFQLMHRKARGDEVSNDKFGGKNYCAESNGNAADTLMLCASWVAQTDLSEFFKKWNPGANAYQLPGASEMSFEGGVSQSAYNTLASLDLPKPEQGPETINQVTEHKMSAE",glycan array binding signal (z-score),[42],0.36
same,glycan array binding signal (z-score),[43],0.123
